Construct, isoform or probe ends are uncertain for at least one entry. Results from cells or extracts need not show a direct contact. For some of these results: Negatives hold for the conditions tested. Protein sequences can lack the tags named with them.
What was measured:
[1] = biological target: T1, rbFox1 (mouse brain) (Mus musculus (C57/BL6)) (UniProt Q9JJ43); test: pull-down, western blot; settings: 300 mM NaCl, 2 mM MgCl2; protein in an extract; label: biotin
T1 sequence (looked up, limits assumed): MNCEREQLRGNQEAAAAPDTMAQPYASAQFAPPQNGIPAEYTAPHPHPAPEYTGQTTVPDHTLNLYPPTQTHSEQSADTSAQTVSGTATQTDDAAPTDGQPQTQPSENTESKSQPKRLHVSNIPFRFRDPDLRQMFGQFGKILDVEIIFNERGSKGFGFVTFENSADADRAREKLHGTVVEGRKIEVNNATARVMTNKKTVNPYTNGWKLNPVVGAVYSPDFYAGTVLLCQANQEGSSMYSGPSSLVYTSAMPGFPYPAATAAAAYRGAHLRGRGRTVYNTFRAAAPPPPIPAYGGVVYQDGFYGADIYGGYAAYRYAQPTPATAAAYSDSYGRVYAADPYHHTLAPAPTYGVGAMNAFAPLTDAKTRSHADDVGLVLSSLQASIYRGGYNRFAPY

[2] = biological target: T2, Mbnl1 (mouse brain) (Mus musculus (C57/BL6)) (UniProt Q9JKP5); test: pull-down, western blot; settings: 300 mM NaCl, 2 mM MgCl2; protein in an extract; label: biotin
T2 sequence (looked up, limits assumed): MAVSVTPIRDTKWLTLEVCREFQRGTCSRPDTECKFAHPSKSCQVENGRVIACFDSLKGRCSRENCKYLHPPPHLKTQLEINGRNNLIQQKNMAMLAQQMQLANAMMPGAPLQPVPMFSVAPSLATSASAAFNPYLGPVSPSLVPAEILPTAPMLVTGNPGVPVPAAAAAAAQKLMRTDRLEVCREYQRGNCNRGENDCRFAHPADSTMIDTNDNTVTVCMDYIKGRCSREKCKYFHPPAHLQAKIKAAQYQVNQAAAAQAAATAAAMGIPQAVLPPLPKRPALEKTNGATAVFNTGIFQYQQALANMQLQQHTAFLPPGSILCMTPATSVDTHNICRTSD

| Sequence | binding result [1] | binding result [2] |
| --- | --- | --- |
| CCUGCCUGCCUGCCUGCCUGCCUGCCUGCCUGCCUGCCUGCCUGCCUGCCUGCCUGCCUGCCUGCCUGCCUGCCUGCCUGCCUGCCUGCCUGCCUGCCUGCCUGCCUGCCUGCCUGCCUG [biotin-(CCUG)30] | binds | binds |
| CUGCUGCUGCUGCUGCUGCUGCUGCUGCUGCUGCUGCUGCUGCUGCUGCUGCUGCUGCUGCUGCUGCUGCUGCUGCUGCUGCUGCUGCUG [biotin-(CUG)30] | no binding | binds |
